According to publication doi:10.1101/733030:
Where two headings read alike, the source gives them in different places. Results are given in words; binding and its absence hold for the method and conditions named. For some assays here: A result given as binding can be weak or reduced; the word gives no strength. For some assays here: Sequences can lack the tags named with a protein.

Protein sequences, listed by entry. Tags and fused reporters are not part of them.
UniProt Q9I741, whole entry: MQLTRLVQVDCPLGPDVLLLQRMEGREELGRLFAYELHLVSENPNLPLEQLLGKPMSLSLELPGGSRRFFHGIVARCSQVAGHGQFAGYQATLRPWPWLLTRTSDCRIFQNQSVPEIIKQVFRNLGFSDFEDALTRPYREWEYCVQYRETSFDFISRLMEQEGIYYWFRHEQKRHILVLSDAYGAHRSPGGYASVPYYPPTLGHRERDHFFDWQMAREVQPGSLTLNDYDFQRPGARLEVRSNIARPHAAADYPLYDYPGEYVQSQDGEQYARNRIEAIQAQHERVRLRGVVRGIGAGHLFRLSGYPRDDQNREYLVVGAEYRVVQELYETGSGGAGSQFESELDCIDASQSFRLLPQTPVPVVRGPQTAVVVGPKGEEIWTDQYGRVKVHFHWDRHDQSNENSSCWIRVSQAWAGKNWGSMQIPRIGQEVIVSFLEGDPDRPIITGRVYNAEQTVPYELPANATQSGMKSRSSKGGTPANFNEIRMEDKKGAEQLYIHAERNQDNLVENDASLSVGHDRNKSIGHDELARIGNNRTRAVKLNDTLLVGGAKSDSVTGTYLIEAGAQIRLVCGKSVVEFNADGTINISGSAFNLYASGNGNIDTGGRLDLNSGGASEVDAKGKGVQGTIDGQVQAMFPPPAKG

Legend:
[1] = target: Tse8 (type six exported 8), purified untagged (P. aeruginosa) (UniProt Q9HWL8); assay: far-Western, overlay or dot blot
[2] = target: VgrG1a, bacterial two-hybrid fusion (P. aeruginosa) (UniProt Q9I741); assay: two-hybrid
[3] = target: T1, VgrG1b, bacterial two-hybrid fusion (P. aeruginosa) (UniProt Q9I737); assay: two-hybrid
T1 sequence: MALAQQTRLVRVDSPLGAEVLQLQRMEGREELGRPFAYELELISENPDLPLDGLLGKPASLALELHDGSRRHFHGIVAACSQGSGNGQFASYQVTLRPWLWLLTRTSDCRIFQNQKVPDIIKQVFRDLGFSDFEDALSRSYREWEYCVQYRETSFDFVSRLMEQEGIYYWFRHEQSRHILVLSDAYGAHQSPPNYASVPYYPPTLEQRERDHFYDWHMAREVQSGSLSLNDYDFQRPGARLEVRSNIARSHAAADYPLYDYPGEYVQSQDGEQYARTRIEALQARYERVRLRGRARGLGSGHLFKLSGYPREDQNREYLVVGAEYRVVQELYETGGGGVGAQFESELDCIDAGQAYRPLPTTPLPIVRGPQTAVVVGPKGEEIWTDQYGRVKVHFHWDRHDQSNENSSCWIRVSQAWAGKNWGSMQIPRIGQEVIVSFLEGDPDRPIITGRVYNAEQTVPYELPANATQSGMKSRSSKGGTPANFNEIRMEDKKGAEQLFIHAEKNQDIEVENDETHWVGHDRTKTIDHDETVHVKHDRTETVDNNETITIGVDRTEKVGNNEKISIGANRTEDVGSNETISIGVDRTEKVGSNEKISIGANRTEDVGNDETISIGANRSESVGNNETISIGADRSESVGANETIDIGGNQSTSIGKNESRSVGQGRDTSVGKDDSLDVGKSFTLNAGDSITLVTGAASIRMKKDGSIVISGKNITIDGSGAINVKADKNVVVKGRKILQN

Tsi8-His (P. aeruginosa) = Tsi8-His (P. aeruginosa) (UniProt Q9HWL7); assay: pull-down
[4] = target: Tse8 (type six exported 8), purified untagged (P. aeruginosa) (UniProt Q9HWL8); assay: far-Western, overlay or dot blot; remark: listed apart in the source

His-GatB (from UniProt Q9HVT7)
binding [1]: binds

Tse8, bacterial two-hybrid fusion (from UniProt Q9HWL8)
binding [2]: binds | binding [3]: no binding

VgrG1a-V5 (from UniProt Q9I741 1-643)
binding [1]: binds

Tse8-HA-Strep (from UniProt Q9HWL8)
binding (Tsi8-His (P. aeruginosa)): binds

GatA-V5 (from UniProt Q9HVT8 1-484)
binding [1]: no binding

B1: GatC-HA (protein, UniProt Q9HVT9 1-96)
chain: MALERSDVEKIAHLARLGLSEADLPRTTETLNNILGLIDQMQAVDTSGVEPLAHPLEATQRLRPDAVTETDHRDAYQTIAPAVEEGLYLVPKVIES
binding [4]: binds

B2: VgrG1b-V5 (protein, UniProt Q9I737 1-741)
chain: T1 sequence
binding [4]: no binding
